Literature values as cited in patent US9765154B2, “Phosphohistidine analogs” (THE ROCKEFELLER UNIVERSITY, priority 2010, dated 2017).
At least one structure is not confirmed: it was looked up by name or label, or the drawing left a doubt.

Conditions: phosphoramidate (P—N) bond vs phosphoester bond; cited from earlier work

In the case of `NC(COP(=O)(O)O)C(=O)O` (stereo not shown) [pSer], the “Δ G° of hydrolysis” value is listed as −6.5 to about −9.5.
